# Results: the supplement of paper PMC12067093, “Discovery and optimisation of a covalent ligand for TRIM25 and its application to targeted protein ubiquitination” (Chemical Science, 2025)
# Amino acid sequences for entries named in this document (tags omitted). A change or cut given only in a name is not applied to a line headed by its entry.
# UniProt Q9UK73, whole entry, looked up: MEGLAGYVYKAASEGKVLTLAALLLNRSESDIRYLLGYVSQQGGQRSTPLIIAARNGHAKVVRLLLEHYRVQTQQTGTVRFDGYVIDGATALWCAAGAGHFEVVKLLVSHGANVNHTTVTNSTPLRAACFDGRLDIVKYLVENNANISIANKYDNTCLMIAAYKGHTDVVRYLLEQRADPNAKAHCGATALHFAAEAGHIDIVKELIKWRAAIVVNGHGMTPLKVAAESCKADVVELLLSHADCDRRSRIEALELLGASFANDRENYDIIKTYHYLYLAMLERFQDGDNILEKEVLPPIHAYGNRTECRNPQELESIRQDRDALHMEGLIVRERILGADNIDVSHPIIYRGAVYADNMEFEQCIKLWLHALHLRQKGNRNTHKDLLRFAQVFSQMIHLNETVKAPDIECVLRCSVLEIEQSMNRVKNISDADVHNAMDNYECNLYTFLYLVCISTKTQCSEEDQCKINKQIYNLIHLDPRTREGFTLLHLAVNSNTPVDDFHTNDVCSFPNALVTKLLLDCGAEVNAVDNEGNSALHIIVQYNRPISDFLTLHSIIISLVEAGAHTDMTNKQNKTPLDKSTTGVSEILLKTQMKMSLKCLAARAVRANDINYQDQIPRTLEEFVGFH
# UniProt Q9NXK8: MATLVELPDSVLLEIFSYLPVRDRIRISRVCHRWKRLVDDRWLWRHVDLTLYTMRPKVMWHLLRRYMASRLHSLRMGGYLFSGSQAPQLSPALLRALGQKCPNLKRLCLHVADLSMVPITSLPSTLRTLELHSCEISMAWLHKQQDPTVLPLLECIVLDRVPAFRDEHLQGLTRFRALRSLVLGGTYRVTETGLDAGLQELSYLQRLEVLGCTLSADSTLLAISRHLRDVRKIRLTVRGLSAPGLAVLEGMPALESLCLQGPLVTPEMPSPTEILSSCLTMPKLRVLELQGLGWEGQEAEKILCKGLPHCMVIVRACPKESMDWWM
# UniProt P22087: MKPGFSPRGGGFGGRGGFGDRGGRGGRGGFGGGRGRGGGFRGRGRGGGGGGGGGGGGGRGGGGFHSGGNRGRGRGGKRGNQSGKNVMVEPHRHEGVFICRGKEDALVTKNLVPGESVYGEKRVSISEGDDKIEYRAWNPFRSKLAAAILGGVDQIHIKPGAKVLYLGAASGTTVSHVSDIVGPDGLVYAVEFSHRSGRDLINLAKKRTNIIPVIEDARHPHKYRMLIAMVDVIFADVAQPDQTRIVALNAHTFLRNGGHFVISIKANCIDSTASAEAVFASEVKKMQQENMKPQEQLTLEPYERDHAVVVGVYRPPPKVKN
# UniProt Q9UK61: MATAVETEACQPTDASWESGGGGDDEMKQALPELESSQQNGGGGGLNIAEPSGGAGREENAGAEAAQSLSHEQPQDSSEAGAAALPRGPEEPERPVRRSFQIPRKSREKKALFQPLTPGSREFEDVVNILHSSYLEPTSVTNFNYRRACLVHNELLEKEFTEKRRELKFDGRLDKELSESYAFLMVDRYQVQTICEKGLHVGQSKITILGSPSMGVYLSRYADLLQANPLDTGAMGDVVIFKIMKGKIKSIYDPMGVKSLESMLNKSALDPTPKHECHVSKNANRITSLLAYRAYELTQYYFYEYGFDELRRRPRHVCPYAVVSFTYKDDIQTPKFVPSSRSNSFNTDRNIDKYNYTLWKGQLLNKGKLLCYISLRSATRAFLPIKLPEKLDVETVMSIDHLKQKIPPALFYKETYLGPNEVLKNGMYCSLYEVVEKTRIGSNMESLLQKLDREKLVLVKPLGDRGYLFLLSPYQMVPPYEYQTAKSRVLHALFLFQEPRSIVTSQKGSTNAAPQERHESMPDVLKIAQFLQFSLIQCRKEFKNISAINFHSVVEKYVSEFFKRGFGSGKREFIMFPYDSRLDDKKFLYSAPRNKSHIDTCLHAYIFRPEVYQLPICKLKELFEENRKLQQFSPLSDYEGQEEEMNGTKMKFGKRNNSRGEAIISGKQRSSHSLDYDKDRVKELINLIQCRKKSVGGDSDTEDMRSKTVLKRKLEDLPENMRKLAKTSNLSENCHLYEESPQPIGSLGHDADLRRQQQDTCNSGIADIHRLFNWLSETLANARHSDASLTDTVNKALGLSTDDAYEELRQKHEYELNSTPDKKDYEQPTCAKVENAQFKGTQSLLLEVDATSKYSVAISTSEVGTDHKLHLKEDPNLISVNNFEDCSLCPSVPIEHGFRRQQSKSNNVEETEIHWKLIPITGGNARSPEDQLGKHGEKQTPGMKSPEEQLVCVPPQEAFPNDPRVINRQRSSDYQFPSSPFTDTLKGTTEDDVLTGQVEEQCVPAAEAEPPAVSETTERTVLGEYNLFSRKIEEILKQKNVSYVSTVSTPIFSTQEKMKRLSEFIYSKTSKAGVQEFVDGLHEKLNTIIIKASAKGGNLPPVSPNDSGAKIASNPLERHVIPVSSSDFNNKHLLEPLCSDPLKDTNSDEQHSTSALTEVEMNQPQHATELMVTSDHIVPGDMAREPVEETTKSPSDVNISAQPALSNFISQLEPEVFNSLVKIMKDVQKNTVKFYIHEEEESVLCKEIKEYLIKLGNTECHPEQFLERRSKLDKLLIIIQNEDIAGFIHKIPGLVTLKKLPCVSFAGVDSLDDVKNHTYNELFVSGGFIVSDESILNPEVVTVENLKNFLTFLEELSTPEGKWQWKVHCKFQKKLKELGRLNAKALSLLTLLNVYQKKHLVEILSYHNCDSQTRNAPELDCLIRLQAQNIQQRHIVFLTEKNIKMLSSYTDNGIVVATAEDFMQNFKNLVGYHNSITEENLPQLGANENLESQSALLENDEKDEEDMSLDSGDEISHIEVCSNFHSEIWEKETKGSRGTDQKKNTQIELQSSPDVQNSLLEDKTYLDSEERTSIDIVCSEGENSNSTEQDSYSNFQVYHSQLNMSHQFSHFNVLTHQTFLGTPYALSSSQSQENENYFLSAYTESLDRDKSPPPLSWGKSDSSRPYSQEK
# UniProt Q9UK99: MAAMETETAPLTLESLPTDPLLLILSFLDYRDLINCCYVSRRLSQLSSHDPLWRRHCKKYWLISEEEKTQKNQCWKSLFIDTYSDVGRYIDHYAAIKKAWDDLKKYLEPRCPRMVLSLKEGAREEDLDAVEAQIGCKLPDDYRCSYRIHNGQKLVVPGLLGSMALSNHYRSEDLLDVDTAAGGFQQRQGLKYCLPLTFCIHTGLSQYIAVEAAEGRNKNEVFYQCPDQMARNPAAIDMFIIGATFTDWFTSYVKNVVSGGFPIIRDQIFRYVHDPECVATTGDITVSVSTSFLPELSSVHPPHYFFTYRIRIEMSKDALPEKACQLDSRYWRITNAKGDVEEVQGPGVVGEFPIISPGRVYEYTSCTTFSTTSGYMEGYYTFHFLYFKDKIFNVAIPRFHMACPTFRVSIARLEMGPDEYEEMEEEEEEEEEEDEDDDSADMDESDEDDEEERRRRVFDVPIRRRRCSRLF
# UniProt Q52LJ0: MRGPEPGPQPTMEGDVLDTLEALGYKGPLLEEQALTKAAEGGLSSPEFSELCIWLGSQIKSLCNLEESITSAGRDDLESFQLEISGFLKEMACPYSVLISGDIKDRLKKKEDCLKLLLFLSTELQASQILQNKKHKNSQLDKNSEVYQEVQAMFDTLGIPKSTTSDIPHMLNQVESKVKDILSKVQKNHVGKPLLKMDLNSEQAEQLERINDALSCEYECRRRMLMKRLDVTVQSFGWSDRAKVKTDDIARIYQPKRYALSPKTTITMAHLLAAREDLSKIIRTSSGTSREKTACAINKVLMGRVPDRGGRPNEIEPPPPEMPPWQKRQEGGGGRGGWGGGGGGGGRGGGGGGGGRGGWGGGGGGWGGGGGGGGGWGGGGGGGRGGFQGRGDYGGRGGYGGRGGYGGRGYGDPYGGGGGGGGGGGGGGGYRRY
# UniProt Q53R41: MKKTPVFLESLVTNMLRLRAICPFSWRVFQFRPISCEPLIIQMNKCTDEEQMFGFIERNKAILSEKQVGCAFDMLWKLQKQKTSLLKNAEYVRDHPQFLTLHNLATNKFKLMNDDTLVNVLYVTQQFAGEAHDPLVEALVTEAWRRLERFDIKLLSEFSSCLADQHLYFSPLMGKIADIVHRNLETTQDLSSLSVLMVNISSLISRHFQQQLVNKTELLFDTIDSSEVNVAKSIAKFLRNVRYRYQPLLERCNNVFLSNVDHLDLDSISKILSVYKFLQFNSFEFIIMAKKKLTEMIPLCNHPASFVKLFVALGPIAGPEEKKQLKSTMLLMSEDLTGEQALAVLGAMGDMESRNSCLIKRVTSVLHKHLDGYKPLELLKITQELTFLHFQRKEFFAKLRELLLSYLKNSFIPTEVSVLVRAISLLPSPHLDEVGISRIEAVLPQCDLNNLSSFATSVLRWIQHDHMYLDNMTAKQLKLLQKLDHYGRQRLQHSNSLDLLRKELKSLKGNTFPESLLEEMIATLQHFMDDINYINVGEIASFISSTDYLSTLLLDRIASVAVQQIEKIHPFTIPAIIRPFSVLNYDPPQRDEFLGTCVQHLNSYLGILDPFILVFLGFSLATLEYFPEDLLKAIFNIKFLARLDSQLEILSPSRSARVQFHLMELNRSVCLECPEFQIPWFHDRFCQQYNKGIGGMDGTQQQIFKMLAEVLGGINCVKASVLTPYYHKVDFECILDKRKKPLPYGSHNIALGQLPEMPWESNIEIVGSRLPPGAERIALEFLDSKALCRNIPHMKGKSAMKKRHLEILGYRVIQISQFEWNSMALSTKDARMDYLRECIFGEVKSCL
# UniProt Q9NYY8: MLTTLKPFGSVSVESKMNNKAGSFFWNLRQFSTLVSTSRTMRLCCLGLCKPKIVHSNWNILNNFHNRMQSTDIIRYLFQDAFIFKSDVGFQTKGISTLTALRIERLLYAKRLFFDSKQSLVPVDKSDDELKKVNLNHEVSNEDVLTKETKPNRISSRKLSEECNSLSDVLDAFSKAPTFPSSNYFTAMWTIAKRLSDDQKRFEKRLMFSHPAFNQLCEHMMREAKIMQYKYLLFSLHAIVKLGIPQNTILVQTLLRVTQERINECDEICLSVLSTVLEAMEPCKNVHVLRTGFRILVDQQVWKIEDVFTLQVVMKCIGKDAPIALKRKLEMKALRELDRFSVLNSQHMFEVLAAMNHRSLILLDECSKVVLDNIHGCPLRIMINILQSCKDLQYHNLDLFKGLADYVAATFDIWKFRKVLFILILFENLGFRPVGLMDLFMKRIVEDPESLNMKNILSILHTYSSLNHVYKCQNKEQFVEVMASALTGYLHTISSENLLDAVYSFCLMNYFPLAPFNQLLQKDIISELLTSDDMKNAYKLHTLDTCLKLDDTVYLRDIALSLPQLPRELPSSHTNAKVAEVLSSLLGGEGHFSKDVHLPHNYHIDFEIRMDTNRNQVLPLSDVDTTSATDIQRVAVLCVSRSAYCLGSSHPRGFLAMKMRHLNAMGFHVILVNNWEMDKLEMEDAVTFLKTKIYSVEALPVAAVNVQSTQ
# UniProt Q5HYJ3: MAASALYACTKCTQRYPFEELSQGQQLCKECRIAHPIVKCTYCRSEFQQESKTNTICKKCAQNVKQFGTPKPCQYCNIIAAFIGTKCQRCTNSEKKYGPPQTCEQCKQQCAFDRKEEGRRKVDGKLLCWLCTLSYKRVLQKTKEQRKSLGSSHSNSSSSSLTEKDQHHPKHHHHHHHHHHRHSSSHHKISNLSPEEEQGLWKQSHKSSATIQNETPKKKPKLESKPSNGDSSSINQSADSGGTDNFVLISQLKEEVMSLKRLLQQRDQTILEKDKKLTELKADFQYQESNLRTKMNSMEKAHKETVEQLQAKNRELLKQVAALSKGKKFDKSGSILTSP
# UniProt O94868: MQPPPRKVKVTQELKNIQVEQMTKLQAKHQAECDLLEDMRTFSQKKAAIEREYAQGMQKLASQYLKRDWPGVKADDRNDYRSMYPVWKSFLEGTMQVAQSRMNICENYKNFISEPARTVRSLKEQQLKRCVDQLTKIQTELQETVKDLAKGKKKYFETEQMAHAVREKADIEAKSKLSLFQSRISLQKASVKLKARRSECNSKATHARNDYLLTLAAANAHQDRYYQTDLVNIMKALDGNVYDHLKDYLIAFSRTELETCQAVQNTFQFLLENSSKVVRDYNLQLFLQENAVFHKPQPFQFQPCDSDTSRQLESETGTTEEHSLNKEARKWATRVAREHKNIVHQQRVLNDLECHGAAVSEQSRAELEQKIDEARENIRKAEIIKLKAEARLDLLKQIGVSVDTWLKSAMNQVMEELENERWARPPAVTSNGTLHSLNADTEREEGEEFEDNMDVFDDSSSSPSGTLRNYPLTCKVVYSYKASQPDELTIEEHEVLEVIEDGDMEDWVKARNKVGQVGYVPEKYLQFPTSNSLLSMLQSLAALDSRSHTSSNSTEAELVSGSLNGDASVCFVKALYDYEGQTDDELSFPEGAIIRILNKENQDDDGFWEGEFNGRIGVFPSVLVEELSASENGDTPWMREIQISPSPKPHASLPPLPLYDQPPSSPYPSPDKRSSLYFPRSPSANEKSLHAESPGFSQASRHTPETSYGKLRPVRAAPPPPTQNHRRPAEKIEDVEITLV
# The list shows a part of the results.
# Compound: Cc1cc(ccc1-c1ccccc1)C(=O)N1CCCN(CC1)C(=O)CCl [compound 10]
# Experiment: probe-labelled cysteine peptide fold change vs DMSO (competition) (log2 fold change); higher = less target engagement (more negative = stronger competition)
# Conditions: 10 µM; THP-1; incubation time: 4 h
# 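Further: competitive profiling in live THP-1 cells: cysteine peptides tagged with an iodoacetamide desthiobiotin (IA-DTB) probe, intensity after compound treatment relative to DMSO-treated cells.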
row,Target,probe-labelled cysteine peptide fold change
1,FGD3_Q5JSP0_284_QEVCGNLTLQHHMLEPVQR (UniProt Q5JSP0),0.00639
2,FBXW2_Q9UKT8_189_LWDVSTGQCVYGIQTHTCAAVK (UniProt Q9UKT8),0.065
3,FEM1B_Q9UK73_409_APDIECVLR (UniProt Q9UK73),-0.32
4,FBXL12_Q9NXK8_310_GLPHCMVIVR (UniProt Q9NXK8),-0.02
5,FAM98A_Q8NCA5_126_MLCVNAPPKK (UniProt Q8NCA5),-0.128
6,FBL_P22087_268_ANCIDSTASAEAVFASEVKK (UniProt P22087),0.0013
7,FAM208A_Q9UK61_734_TSNLSENCHLYEESPQPIGSLGHDADLRR (UniProt Q9UK61),-0.205
8,FBXO3_Q9UK99_403_FHMACPTFR (UniProt Q9UK99),-0.0404
9,FBXO38_Q6PIJ6_303_NLHTIVLGACK (UniProt Q6PIJ6),0.00945
10,FDXR_P22570_42_TPQICVVGSGPAGFYTAQHLLK (UniProt P22570),0.0859
11,FAM98B_Q52LJ0_216+220_INDALSCEYECR (UniProt Q52LJ0),-0.164
12,FASTKD1_Q53R41_733_VDFECILDK (UniProt Q53R41),-0.294
13,FBXO45_P0C2W1_98_TDILCNLPSYK (UniProt P0C2W1),0.0904
14,FASTKD2_Q9NYY8_366_SLILLDECSK (UniProt Q9NYY8),0.19
15,FES_P07332_372_QVLQEALQGLQVALCSQAK (UniProt P07332),-0.028
16,FAR2_Q96K12_170_HIDEVIYPCPVEPK (UniProt Q96K12),-0.0319
17,FAM136A_Q96C01_53_QVHQCIER (UniProt Q96C01),-0.0673
18,FBXL12_Q9NXK8_134_TLELHSCEISMAWLHK (UniProt Q9NXK8),0.0753

row,Target,probe-labelled cysteine peptide fold change
1,FBH1_Q8NFZ0_857_CHIEDLDFAEYILGTVHK (UniProt Q8NFZ0),-0.159
2,FAM76B_Q5HYJ3_73_PCQYCNIIAAFIGTK (UniProt Q5HYJ3),-0.188
3,FAR1_Q8WVX9_305_NIMVYNCTTGSTNPFHWGEVEYHVISTFK (UniProt Q8WVX9),0.349
4,FASN_P49327_1403_KSFYGSTLFLCR (UniProt P49327),0.0238
5,FDX2_Q6P4F2_154_LGCQIVLTPELEGAEFTLPK (UniProt Q6P4F2),0.0206
6,FASN_P49327_1227_ACLDTAVENMPSLK (UniProt P49327),0.0497
7,FCHSD2_O94868_33_HQAECDLLEDMR (UniProt O94868),-0.181
8,FBN2_P35556_682_CDCPPGLAVGMDGR (UniProt P35556),0.252
9,FASN_P49327_135_DPETLVGYSMVGCQR (UniProt P49327),-0.0348
10,FBN2_P35556_1052_EYETLCPR (UniProt P35556),0.0519
11,FASN_P49327_2369_AKLTPGCEAEAETEAICFFVQQFTDMEHNR (UniProt P49327),-0.0307
12,FGB_P02675_437_CHAANPNGR (UniProt P02675),-0.463
13,FASN_P49327_1118+1127_FCFTPHTEEGCLSER (UniProt P49327),-0.166
14,FAM76B_Q5HYJ3_60_CAQNVK (UniProt Q5HYJ3),0.078
15,FAM208A_Q9UK61_601_SHIDTCLHAYIFRPEVYQLPICK (UniProt Q9UK61),-0.151
16,FASTKD1_Q53R41_716_MLAEVLGGINCVK (UniProt Q53R41),0.0359
17,FAM208B_Q5VWN6_186_VIPILSTLNCALLETKK (UniProt Q5VWN6),-0.206
